In test [1] the target is T1, His-MRS (human) (UniProt P56192).
T1 sequence: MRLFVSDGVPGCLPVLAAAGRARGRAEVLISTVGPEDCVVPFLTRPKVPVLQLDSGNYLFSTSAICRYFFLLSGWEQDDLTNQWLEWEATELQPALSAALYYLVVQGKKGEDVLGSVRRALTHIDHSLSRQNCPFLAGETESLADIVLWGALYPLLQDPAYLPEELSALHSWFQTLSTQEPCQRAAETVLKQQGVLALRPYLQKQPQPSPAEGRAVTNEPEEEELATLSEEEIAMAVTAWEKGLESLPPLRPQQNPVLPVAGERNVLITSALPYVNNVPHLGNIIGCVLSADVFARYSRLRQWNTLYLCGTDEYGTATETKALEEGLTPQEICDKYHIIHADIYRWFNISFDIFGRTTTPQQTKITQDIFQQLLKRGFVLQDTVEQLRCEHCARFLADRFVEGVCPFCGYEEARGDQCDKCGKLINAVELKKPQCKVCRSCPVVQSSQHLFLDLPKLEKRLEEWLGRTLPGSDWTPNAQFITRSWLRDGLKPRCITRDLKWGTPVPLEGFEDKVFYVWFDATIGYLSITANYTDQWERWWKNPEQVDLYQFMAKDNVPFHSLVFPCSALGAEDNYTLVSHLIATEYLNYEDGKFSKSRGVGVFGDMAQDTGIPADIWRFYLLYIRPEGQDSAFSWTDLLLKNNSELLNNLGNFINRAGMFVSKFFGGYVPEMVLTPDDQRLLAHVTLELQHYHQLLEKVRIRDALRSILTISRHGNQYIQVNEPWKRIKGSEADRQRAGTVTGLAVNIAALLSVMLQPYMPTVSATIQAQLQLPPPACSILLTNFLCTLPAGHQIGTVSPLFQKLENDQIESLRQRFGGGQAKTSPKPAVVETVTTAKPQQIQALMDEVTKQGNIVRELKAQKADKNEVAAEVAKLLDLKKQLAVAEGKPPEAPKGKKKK
Description: ELISA, coated His-MRS, one antibody concentration, absorbance at 450 nm. (In an ELISA, binding on a coated surface is turned into a signal by an enzyme label.)

The target in test [2] is T1, His-MRS (human). Description: ELISA, protein coated at 1 ug/ml, antibody at 500 ng/ml.

These are yes or no findings as the source states them, for the method shown. Some entries that bind do so weakly or less than the wild type. Sequences can lack the tags named with a protein.

B1: 8A12 antibody (whole 8A12 IgG antibody) (antibody, V domains shown)
VH: DVKLQESGPGLVKPSQSLSLTCTVTGYSITSEYAWTWIRQFPGNKLEWMGYINYNGNTNLNPSLKSRISIIRDTSKNQFFLQLNSVTTEDTATYYCARSLWPRGWFAYWGQGTLVTVSA
VL: DIQMTQSPSSMYASLGERVTITCKASQDINSYLSWFQQKPGKSPKTLMYRANRLVDGVPSRFSGSGSGQDYSLTISSLEYEDMGIYYCLQYDEFPRTFGGGTKLEIKA
On to B1, for which the binding result in test [1] and in test [2] was “binds” each time.

(Values after patent US20200225234A1.)
